These results are taken from paper PMC12387760.

The target of this test is T1, Nucleolar and coiled-body phosphoprotein 1 (NOLC1), Flag-tagged (human) (UniProt Q14978).
T1 sequence: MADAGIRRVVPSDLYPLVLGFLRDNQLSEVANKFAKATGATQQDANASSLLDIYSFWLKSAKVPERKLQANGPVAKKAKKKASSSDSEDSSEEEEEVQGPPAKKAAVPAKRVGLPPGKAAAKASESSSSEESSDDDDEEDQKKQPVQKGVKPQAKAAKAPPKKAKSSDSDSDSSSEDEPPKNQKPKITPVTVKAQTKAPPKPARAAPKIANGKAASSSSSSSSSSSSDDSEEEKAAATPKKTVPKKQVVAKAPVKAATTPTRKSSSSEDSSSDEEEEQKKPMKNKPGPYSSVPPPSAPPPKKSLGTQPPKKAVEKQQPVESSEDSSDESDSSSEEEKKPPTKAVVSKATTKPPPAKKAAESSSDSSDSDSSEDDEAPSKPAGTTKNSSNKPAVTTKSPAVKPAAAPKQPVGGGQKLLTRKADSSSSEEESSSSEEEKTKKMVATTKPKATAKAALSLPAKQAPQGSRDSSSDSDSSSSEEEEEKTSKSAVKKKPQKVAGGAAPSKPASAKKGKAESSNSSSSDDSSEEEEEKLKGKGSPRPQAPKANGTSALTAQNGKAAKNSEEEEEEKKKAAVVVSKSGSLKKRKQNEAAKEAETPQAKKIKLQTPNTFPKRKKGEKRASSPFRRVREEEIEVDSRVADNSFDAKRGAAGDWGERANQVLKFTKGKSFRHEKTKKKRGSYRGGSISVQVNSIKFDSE
Put plainly: co-IP; HEK-293T cells transfected with the plasmids, lysed 48 hr later in IP lysis buffer; anti-Flag magnetic beads immunoprecipitate NOLC1-Flag; immunoblotting.

These are yes or no findings as the source states them, for the method shown. In cells and extracts the contact can be indirect. Some binding calls cover weakened binding; strength is not graded here. Where a sequence is shown, tags or fusion partners need not be part of it.

In the case of “p53, HA-tagged (from UniProt P04637 1-393)”, the binding entry is given as “binds”.
